This is an account of results in paper PMC3697071 (Natural product communications, 2010).

The test system of experiment [1] is Aspergillus fumigatus ATCC 90906. As to the kind of experiment: Antimicrobial assay. The experiment is classed as cell-based. As to conditions: ATCC90906, read-out: A. fumigatus MIC.
The subject of experiment [2] is Candida albicans ATCC 90028. The experiment can be described thus: Antimicrobial assay. The experiment is classed as cell-based. As to conditions: ATCC90028, read-out: C. albicans MIC.

Structures are written as SMILES. In brackets after ≈: the same amount, converted by molar mass.

Usually MIC stands for the smallest concentration in the dilution series that meets the test's criterion for growth inhibition. `C[C@@H]1[C@H](O)[C@@H](C)/C=C/C=C/C=C/C=C/C=C/C=C/C=C/[C@H](O[C@@H]2O[C@H](C)[C@@H](O)[C@H](N)[C@@H]2O)C[C@@H]2O[C@](O)(C[C@@H](O)C[C@@H](O)[C@H](O)CC[C@@H](O)C[C@@H](O)CC(=O)O[C@H]1C)C[C@H](O)[C@H]2C(=O)O` [Amphotericin B, reference compound]: the MIC in experiment [1] amounted to 2.5 µg/mL (≈ 2.71 µM); in experiment [2], 1.25 µg/mL (≈ 1.35 µM).
